Test results: article PMC11574364
The exact form of at least one protein or probe is not confirmed. For some of these results: Protein sequences can lack the tags named with them.

Chains of the proteins cited; added tags and fusions are not shown. Lines headed by an entry give the natural chain unless they say otherwise; changes in a name come on top.
UniProt P16581: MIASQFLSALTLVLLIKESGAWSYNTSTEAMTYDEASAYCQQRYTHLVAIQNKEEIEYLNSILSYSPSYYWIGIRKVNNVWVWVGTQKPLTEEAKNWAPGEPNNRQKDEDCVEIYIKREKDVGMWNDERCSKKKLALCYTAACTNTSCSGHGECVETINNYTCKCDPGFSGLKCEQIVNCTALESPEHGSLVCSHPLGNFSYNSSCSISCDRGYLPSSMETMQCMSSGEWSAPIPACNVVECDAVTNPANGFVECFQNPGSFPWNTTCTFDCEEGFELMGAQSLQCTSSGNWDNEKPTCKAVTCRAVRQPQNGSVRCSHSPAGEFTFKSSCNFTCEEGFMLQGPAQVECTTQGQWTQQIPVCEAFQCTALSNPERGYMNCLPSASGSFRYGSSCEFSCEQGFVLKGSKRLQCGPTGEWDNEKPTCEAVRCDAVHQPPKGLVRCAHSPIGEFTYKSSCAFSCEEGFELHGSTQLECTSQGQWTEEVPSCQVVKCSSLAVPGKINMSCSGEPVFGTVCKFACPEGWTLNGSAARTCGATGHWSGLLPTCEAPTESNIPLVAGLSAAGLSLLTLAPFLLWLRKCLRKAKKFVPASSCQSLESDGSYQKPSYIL
UniProt Q96NC0: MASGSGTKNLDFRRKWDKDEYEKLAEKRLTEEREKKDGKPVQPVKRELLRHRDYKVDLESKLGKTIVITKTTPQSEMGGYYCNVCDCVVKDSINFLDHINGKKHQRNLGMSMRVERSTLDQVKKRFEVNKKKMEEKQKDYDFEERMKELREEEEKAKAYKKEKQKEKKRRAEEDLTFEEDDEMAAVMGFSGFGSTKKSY

How the values were obtained:
Test in all cases: human ORF protein microarray
SLC6A13 (Homo sapiens) = biological target: T1, SLC6A13 (Homo sapiens) (UniProt Q9NSD5); settings: 5' phosphate; Domain array: 20 mM Tris-HCl pH 7.4, 200 mM KCl, 0.2 mM EDTA, 0.05% NP40, 2 ug/ul heparin, overnight 4 C. ORF array: PBS pH 7.0 with RNase inhibitor, 100 ng RNA, 1 h.; recombinant protein; protein details: N-terminal GST-6xHis; label: internal DY647 at G18; letters put together from the description
T1 sequence (looked up, limits assumed): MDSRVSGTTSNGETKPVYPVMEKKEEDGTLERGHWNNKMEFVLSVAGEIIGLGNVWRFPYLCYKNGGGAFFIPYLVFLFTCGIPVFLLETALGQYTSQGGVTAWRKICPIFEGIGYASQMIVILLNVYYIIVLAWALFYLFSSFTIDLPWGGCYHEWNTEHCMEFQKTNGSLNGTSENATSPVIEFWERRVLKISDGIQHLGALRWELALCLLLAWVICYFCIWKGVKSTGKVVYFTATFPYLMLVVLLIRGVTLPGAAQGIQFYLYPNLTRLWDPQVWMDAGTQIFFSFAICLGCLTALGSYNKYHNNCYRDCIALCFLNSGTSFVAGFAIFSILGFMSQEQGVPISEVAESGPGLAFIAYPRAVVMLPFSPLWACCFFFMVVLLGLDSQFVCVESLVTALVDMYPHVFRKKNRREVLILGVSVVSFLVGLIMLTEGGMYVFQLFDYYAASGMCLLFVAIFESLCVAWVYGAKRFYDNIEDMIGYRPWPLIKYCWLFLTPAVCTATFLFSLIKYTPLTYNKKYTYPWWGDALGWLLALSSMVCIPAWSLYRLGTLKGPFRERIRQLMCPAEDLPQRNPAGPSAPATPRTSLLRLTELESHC

SELE (Homo sapiens) = SELE (Homo sapiens) (UniProt P16581); settings: 5' phosphate; Domain array: 20 mM Tris-HCl pH 7.4, 200 mM KCl, 0.2 mM EDTA, 0.05% NP40, 2 ug/ul heparin, overnight 4 C. ORF array: PBS pH 7.0 with RNase inhibitor, 100 ng RNA, 1 h.; recombinant protein; protein details: N-terminal GST-6xHis; label: internal DY647 at G18; letters put together from the description
CCR3 (Homo sapiens) = biological target: T2, CCR3 (Homo sapiens) (UniProt P51677); settings: 5' phosphate; Domain array: 20 mM Tris-HCl pH 7.4, 200 mM KCl, 0.2 mM EDTA, 0.05% NP40, 2 ug/ul heparin, overnight 4 C. ORF array: PBS pH 7.0 with RNase inhibitor, 100 ng RNA, 1 h.; recombinant protein; protein details: N-terminal GST-6xHis; label: internal DY647 at G18; letters put together from the description
T2 sequence (looked up, limits assumed): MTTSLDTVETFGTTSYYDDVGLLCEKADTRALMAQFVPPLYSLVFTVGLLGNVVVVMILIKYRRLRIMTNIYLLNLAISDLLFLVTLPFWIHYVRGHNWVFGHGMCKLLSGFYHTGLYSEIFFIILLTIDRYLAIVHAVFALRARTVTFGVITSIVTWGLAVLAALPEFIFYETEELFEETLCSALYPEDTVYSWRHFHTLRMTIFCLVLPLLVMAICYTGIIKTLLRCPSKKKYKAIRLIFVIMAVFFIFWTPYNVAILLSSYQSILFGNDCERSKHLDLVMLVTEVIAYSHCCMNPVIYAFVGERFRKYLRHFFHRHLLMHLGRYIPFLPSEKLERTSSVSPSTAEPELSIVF

SFRS16 (Homo sapiens) = biological target: T3, SFRS16 (Homo sapiens) (UniProt Q8N2M8); settings: 5' phosphate; Domain array: 20 mM Tris-HCl pH 7.4, 200 mM KCl, 0.2 mM EDTA, 0.05% NP40, 2 ug/ul heparin, overnight 4 C. ORF array: PBS pH 7.0 with RNase inhibitor, 100 ng RNA, 1 h.; recombinant protein; protein details: N-terminal GST-6xHis; label: internal DY647 at G18; letters put together from the description
T3 sequence (looked up, limits assumed): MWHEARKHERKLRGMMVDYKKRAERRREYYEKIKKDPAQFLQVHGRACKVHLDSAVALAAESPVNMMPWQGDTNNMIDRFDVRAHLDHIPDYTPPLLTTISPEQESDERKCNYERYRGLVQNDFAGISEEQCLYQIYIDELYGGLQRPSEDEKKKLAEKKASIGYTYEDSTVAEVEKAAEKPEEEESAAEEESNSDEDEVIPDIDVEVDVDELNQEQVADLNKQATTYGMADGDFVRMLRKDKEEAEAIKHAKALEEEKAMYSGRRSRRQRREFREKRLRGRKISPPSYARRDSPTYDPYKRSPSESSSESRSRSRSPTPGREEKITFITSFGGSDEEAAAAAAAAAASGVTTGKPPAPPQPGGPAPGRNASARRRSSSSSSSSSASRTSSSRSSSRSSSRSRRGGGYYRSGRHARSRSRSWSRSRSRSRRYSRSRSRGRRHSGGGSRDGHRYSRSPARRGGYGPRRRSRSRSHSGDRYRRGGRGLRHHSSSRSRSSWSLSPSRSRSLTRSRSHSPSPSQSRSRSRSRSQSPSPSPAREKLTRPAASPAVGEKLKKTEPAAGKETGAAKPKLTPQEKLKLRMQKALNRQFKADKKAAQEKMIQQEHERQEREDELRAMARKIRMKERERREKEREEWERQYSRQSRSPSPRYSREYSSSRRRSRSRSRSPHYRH

SPATA2L (Homo sapiens) = biological target: T4, SPATA2L (Homo sapiens) (UniProt Q8IUW3); settings: 5' phosphate; Domain array: 20 mM Tris-HCl pH 7.4, 200 mM KCl, 0.2 mM EDTA, 0.05% NP40, 2 ug/ul heparin, overnight 4 C. ORF array: PBS pH 7.0 with RNase inhibitor, 100 ng RNA, 1 h.; recombinant protein; protein details: N-terminal GST-6xHis; label: internal DY647 at G18; letters put together from the description
T4 sequence (looked up, limits assumed): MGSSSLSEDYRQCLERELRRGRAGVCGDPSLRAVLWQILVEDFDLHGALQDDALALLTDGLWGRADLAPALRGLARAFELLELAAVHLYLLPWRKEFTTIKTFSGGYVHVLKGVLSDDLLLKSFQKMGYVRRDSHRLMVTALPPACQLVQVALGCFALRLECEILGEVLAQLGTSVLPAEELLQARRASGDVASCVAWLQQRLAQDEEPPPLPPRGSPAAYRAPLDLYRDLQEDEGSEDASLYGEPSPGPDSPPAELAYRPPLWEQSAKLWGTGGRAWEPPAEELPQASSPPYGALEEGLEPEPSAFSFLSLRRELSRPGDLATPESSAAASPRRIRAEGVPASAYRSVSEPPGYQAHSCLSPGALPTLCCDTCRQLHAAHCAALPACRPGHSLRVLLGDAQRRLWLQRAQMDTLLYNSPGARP

ZMAT2 (Homo sapiens) = ZMAT2 (Homo sapiens) (UniProt Q96NC0); settings: 5' phosphate; amino-C6 U at position 18; Domain array: 20 mM Tris-HCl pH 7.4, 200 mM KCl, 0.2 mM EDTA, 0.05% NP40, 2 ug/ul heparin, overnight 4 C. ORF array: PBS pH 7.0 with RNase inhibitor, 100 ng RNA, 1 h.; recombinant protein; protein details: N-terminal GST-6xHis; label: internal Cy5 or DY647
GAL (Homo sapiens) = biological target: T5, GAL (Homo sapiens) (UniProt P22466); settings: 5' phosphate; amino-C6 U at position 18; Domain array: 20 mM Tris-HCl pH 7.4, 200 mM KCl, 0.2 mM EDTA, 0.05% NP40, 2 ug/ul heparin, overnight 4 C. ORF array: PBS pH 7.0 with RNase inhibitor, 100 ng RNA, 1 h.; recombinant protein; protein details: N-terminal GST-6xHis; label: internal Cy5 or DY647
T5 sequence (looked up, limits assumed): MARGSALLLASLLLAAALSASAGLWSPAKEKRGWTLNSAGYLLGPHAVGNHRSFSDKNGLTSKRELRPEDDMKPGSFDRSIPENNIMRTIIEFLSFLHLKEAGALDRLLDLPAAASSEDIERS

Sequence: CAGUGCAAUGAUGAAAGGGCAU [miR-130b (internal labeling)]
- binding result (SLC6A13 (Homo sapiens)): binds
- binding result (SELE (Homo sapiens)): binds

Sequence: UAGCUUAUCAGACUGAUGUUGA [miR-21 (internal labeling)]
- binding result (CCR3 (Homo sapiens)): binds
- binding result (SFRS16 (Homo sapiens)): binds
- binding result (SPATA2L (Homo sapiens)): binds

Sequence: UGAGGUAGUAGGUUGUGUGGUU [let-7b (internal labeling)]
- binding result (ZMAT2 (Homo sapiens)): binds
- binding result (GAL (Homo sapiens)): binds
